The source of these data is publication PMC11343458, “Extracellular proteolysis of tandemly duplicated pheromone propeptides affords additional complexity to bacterial quorum sensing” (PLOS Biology, 2024).

For test [1], the target named is Rap^3T (Bacillus phage phi3T). Kind of test: crystal structure; sitting drops at 21°C, protein at 10 mg/ml, glycerol ethoxylate/tetrahydrofuran conditions; both purified.
Test [2] deals with Rap^105 (Bacillus phage phi105). The description is as above.
The target of test [3] is Rap^3T (Bacillus phage phi3T). Kind of test: thermal shift assay; Sypro Orange, 50 μm protein, 100 μm synthetic peptide, 20 mM Tris (pH 8), 250 mM NaCl (or filtered supernatant in the maturation assays), heated from 20 to 85°C; both purified.

These are yes or no findings as the source states them, for the method shown. For part of these data: Binding calls can cover weak binding; strength is not graded here.

As to RRGHTAS, in test [1], the binding entry is on record as “binds”. The same measure, in the same setting: under RRGHTA stands “binds”. With ERPVGT, the binding entry in test [2] is on record as “binds”; in test [3], “no binding (tested: 100 μm)”.

In the case of RGHTS, the binding result in test [1] is on record as “binds”. On the same count and under the same terms, under SRGHTS stands “binds”.
